{"sequences": {"note": "Amino acid sequences for entries named in this document (tags omitted).", "UniProt P30989, whole entry": "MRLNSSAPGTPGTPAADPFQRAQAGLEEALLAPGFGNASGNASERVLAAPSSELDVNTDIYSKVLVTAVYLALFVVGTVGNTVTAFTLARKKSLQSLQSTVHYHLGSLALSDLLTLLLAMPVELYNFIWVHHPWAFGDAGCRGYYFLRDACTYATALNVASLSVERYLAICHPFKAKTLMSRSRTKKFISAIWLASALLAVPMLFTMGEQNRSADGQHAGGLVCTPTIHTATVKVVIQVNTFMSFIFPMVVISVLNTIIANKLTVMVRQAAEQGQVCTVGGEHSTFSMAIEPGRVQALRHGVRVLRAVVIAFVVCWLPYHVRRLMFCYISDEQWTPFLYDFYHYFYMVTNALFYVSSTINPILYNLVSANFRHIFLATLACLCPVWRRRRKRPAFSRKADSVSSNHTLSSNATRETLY"}, "source": "patent US20200078468A1", "about": "“NEUROTENSIN RECEPTOR BINDING CONJUGATES AND FORMULATIONS THEREOF” (priority 2016, published 2020)", "target": "T1, human NTSR1 (Homo sapiens, UniProt P30989)", "T1 construct": "host or cells: HEK-293 cells (membrane preparations)", "test": "radioligand-receptor binding assay, [125I] labeled neurotensin (Eurofins Panlabs)", "conditions": "read-out: NTSR1 binding Ki; [125I] neurotensin 0.02 nM, membranes from NTSR1 expressing HEK-293 cells, 45 minute incubation, Cheng and Prusoff", "experimental": "Conjugates were assessed in an in vitro assay evaluating binding to NTSR1. A radioligand-receptor binding assay was conducted at Eurofins Panlabs (Taiwan) to determine the affinity of conjugates described herein to NTSR1. The assay measures binding of radiolabeled ligand, [^125I] labeled neurotensin, to human NTSR1 using membrane preparations from NTSR1 expressing HEK-293 cells (Human embryonic kidney cells 293). Membranes were incubated with radiolabeled neurotensin (0.02 nM) in the presence of conjugate/compound starting at a dose of either 100 nM, or 10 nM, using 3× serial dilutions to obtain a 6-pt curve. After a 45 minute incubation, membranes were filtered and washed 3× and counted to determine the remaining [^125I] neurotensin bound to the receptor. IC50 values were determined by a non-linear, least squares regression analysis using MathIQ™ (ID Business Solutions Ltd., UK). The Ki values were calculated using the equation of Cheng and Prusoff (Cheng and Prusoff, Biochem. Pharmacol. 22:3099-3108, 1973) using the observed IC50 of the tested conjugate/compound, the concentration of radioligand employed in the assay, and the historical values for the Kd of the ligand obtained at Eurofins.", "note": "At least one compound was matched to its structure with a doubt left. Numbered stars: 1 amine (or outer) side, 2 acyl side, 3 side chain; on linkers, the order of the positions; unused ones are H or OH. Bridge positions count the residues as written; N and C are the ends. Square brackets hold non-standard residues; d marks the D form. Peptide text beside a SMILES is read from it. I, II: the chains in the order shown. * marks the point of attachment. Hexanoyl(6-succinimido-3yl) = O=C1CC([*:1])C(=O)N1CCCCCC(=O)[*:2]; Dolaproine = CO[C@@H]([C@@H]1CCCN1)[C@@H](C)C(=O)O; Dil = CC[C@H](C)[C@H](NC)[C@@H](CC(=O)O)OC; PABC = O=C(OCc1ccc(N[*:1])cc1)[*:2]; NMeR = CN[C@@H](CCCNC(=N)N)C(=O)O; X1 = C[C@@H](N*)[C@@H](O)c1ccccc1; Cit = NC(=O)NCCC[C@H](N)C(=O)O; Pen = CC(C)(S)[C@H](N)C(=O)O; Tle = CC(C)(C)[C@H](N)C(=O)O; NMeV = CN[C@H](C(=O)O)C(C)C", "data": [{"smiles": "CC[C@H](C)[C@@H]([C@@H](CC(=O)N1CCC[C@H]1[C@H](OC)[C@@H](C)C(=O)N[C@H](C)[C@@H](O)c1ccccc1)OC)N(C)C(=O)[C@@H](NC(=O)[C@H](C(C)C)N(C)C(=O)OCc1ccc(NC(=O)[C@H](CCCNC(N)=O)NC(=O)[C@@H](NC(=O)CCCCCN2C(=O)CC(SC(C)(C)[C@H](NC(C)=O)C(=O)N3CCC[C@H]3C(=O)N[C@@H](CCCNC(=N)N)C(=O)N(C)[C@@H](CCCNC(=N)N)C(=O)N3CCC[C@H]3C(=O)N[C@H](Cc3ccc(O)cc3)C(=O)N[C@H](C(=O)N[C@@H](CC(C)C)C(=O)O)C(C)(C)C)C2=O)C(C)C)cc1)C(C)C", "note": "(stereo partly drawn) [Compound 57] (I: Ac-[Pen]PR[NMeR]P[dY][Tle]L-OH / II: V[Cit][PABC][NMeV]V[Dil][Dolaproine]-X1; linker I:1-II:N via Hexanoyl(6-succinimido-3yl))", "values": [{"measurement": "Ki", "result": 11.2, "unit": "nM"}]}]}
